Reference: paper PMC12635394, “UBE2O-mediated ubiquitylation directs cytoplasmic CTNNA1 to promote cell-to-ECM adhesions” (EMBO Reports, 2025)
These are yes or no findings as the source states them, for the method shown. In cells and extracts the contact can be indirect. Some results given as binding are weak or reduced against the parent protein; the word gives no strength. Where a sequence is shown, tags or fusion partners need not be part of it.

Chains of the proteins cited; added tags and fusions are not shown.
UniProt P26231: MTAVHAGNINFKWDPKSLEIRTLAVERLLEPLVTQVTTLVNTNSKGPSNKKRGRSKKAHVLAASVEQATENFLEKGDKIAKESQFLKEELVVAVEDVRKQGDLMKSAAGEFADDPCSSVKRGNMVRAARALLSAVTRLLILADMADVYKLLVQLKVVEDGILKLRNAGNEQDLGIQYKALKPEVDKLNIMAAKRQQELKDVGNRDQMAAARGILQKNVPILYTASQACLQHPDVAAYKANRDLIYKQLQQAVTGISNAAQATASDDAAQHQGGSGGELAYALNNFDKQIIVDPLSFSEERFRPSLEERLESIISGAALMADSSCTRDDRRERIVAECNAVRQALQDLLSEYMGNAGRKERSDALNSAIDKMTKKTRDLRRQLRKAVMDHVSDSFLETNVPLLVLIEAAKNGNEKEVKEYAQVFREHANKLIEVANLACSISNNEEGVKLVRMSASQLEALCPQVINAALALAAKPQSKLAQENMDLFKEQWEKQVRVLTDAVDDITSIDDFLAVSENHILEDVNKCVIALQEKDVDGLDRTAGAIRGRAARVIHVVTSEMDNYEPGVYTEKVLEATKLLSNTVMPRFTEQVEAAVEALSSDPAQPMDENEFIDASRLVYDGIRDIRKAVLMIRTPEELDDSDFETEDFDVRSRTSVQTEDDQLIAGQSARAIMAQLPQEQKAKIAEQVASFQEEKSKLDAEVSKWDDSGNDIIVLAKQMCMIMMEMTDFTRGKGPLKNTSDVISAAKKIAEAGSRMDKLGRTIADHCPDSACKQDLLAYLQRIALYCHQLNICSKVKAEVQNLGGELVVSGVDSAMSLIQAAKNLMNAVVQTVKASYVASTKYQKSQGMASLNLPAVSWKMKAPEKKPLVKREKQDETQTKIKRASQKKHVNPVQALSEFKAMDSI

T1: Flag-CTNNA2 (full-length human CTNNA2) (human) (UniProt P26232)
T1 sequence: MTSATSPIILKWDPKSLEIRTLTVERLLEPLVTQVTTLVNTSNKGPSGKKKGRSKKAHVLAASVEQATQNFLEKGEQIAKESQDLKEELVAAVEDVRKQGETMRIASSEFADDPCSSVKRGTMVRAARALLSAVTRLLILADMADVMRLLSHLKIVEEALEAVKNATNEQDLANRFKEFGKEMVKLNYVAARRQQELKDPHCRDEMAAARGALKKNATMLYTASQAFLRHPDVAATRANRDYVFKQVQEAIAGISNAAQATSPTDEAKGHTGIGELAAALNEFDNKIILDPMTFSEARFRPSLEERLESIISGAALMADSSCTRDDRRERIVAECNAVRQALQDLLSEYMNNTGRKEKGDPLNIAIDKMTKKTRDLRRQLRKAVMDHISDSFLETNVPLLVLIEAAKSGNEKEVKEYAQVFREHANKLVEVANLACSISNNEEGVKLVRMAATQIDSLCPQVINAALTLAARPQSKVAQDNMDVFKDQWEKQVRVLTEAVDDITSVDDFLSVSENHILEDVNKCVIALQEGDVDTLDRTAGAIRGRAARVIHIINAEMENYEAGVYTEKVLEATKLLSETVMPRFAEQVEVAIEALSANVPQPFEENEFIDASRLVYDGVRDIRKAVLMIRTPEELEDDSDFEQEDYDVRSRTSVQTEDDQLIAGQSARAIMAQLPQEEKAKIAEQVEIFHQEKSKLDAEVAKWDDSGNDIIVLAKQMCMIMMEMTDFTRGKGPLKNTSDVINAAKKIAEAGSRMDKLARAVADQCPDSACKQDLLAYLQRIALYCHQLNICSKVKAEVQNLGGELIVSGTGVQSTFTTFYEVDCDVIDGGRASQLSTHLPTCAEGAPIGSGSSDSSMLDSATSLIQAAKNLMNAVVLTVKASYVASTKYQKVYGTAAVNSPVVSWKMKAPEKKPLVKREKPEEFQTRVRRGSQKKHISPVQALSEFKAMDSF


Legend:
[1] = biological target: CTNNA1-V5 (purified mouse CTNNA1 with C-terminal V5 tag) (mouse) (UniProt P26231); experiment: pull-down; ctrl, CTNNA1-V5 (no ATP) or ubiquitylated CTNNA1-V5 baits on V5-Trap magnetic agarose, incubated overnight at 4 °C with lysate of HEK293T, MDCK, MEFs or HEK293T expressing Flag-CTNNA1 or Flag-CTNNA2, immunoblot; only the target purified
[2] = biological target: Flag-tagged CTNNA1 (full-length mouse Ctnna1) (mouse) (UniProt P26231); experiment: co-IP; co-expression of tagged full-length or truncated proteins in transfected cells (36 h), anti-Flag M2 affinity gel 90 min at 4 °C, immunoblot
[3] = biological target: T1, Flag-CTNNA2 (full-length human CTNNA2) (human); experiment: as above

binding [1]	binding [2]	binding [3]	Molecule
binds	–	–	endogenous β-catenin of mouse embryonic fibroblasts (from UniProt Q02248 1-781)
binds	–	–	endogenous β-catenin of MDCK cells (protein, UniProt B6V8E6 1-781) MATQADLMELDMAMEPDRKAAVSHWQQQSYLDSGIHSGATTTAPSLSGKGNPEEEDVDTTQVLYEWEQGFSQSFTQEQVADIDGQYAMTRAQRVRAAMFPETLDEGMQIPSTQFDAAHPTNVQRLAEPSQMLKHAVVNLINYQDDAELATRAIPELTKLLNDEDQVVVNKAAVMVHQLSKKEASRHAIMRSPQMVSAIVRTMQNTNDVETARCTAGTLHNLSHHREGLLAIFKSGGIPALVKMLGSPVDSVLFYAITTLHNLLLHQEGAKMAVRLAGGLQKMVALLNKTNVKFLAITTDCLQILAYGNQESKLIILASGGPQALVNIMRTYTYEKLLWTTSRVLKVLSVCSSNKPAIVEAGGMQALGLHLTDPSQRLVQNCLWTLRNLSDAATKQEGMEGLLGTLVQLLGSDDINVVTCAAGILSNLTCNNYKNKMMVCQVGGIEALVRTVLRAGDREDITEPAICALRHLTSRHQEAEMAQNAVRLHYGLPVVVKLLHPPSHWPLIKATVGLIRNLALCPANHAPLREQGAIPRLVQLLVRAHQDTQRRTSMGGTQQQFVEGVRMEEIVEGCTGALHILARDVHNRIVIRGLNTIPLFVQLLYSPIENIQRVAAGVLCELAQDKEAAEAIEAEGATAPLTELLHSRNEGVATYAAAVLFRMSEDKPQDYKKRLSVELTSSLFRTEPMAWNETADLGLDIGAQGEPLGYRQDDPSYRSFHSGGYGQDALGMDPMMEHEMGGHHPGADYPVDGLPDLGHAQDLMDGLPPGDSNQLAWFDTDL
–	binds	binds	UBE2O-Myc (full length, expressed in cells) (enzyme, UniProt Q9C0C9 1-1292) MADPAAPTPAAPAPAQAPAPAPEAVPAPAAAPVPAPAPASDSASGPSSDSGPEAGSQRLLFSHDLVSGRYRGSVHFGLVRLIHGEDSDSEGEEEGRGSSGCSEAGGAGHEEGRASPLRRGYVRVQWYPEGVKQHVKETKLKLEDRSVVPRDVVRHMRSTDSQCGTVIDVNIDCAVKLIGTNCIIYPVNSKDLQHIWPFMYGDYIAYDCWLGKVYDLKNQIILKLSNGARCSMNTEDGAKLYDVCPHVSDSGLFFDDSYGFYPGQVLIGPAKIFSSVQWLSGVKPVLSTKSKFRVVVEEVQVVELKVTWITKSFCPGGTDSVSPPPSVITQENLGRVKRLGCFDHAQRQLGERCLYVFPAKVEPAKIAWECPEKNCAQGEGSMAKKVKRLLKKQVVRIMSCSPDTQCSRDHSMEDPDKKGESKTKSEAESASPEETPDGSASPVEMQDEGAEEPHEAGEQLPPFLLKEGRDDRLHSAEQDADDEAADDTDDTSSVTSSASSTTSSQSGSGTSRKKSIPLSIKNLKRKHKRKKNKITRDFKPGDRVAVEVVTTMTSADVMWQDGSVECNIRSNDLFPVHHLDNNEFCPGDFVVDKRVQSCPDPAVYGVVQSGDHIGRTCMVKWFKLRPSGDDVELIGEEEDVSVYDIADHPDFRFRTTDIVIRIGNTEDGAPHKEDEPSVGQVARVDVSSKVEVVWADNSKTIILPQHLYNIESEIEESDYDSVEGSTSGASSDEWEDDSDSWETDNGLVEDEHPKIEEPPIPPLEQPVAPEDKGVVISEEAATAAVQGAVAMAAPMAGLMEKAGKDGPPKSFRELKEAIKILESLKNMTVEQLLTGSPTSPTVEPEKPTREKKFLDDIKKLQENLKKTLDNVAIVEEEKMEAVPDVERKEDKPEGQSPVKAEWPSETPVLCQQCGGKPGVTFTSAKGEVFSVLEFAPSNHSFKKIEFQPPEAKKFFSTVRKEMALLATSLPEGIMVKTFEDRMDLFSALIKGPTRTPYEDGLYLFDIQLPNIYPAVPPHFCYLSQCSGRLNPNLYDNGKVCVSLLGTWIGKGTERWTSKSSLLQVLISIQGLILVNEPYYNEAGFDSDRGLQEGYENSRCYNEMALIRVVQSMTQLVRRPPEVFEQEIRQHFSTGGWRLVNRIESWLETHALLEKAQALPNGVPKASSSPEPPAVAELSDSGQQEPEDGGPAPGEASQGSDSEGGAQGLASASRDHTDQTSETAPDASVPPSVKPKKRRKSYRSFLPEKSGYPDIGFPLFPLSKGFIKSIRGVLTQFRAALLEAGMPECTEDK

Further lines, the molecule ahead of its results:

Molecule	binding [1]	binding [2]	binding [3]
endogenous β-catenin (CTNNB1) of HEK293T cells (from UniProt P35222 1-781)	binds	–	–
Flag-CTNNA2 (full-length human CTNNA2) (protein, UniProt P26232 1-953) MTSATSPIILKWDPKSLEIRTLTVERLLEPLVTQVTTLVNTSNKGPSGKKKGRSKKAHVLAASVEQATQNFLEKGEQIAKESQDLKEELVAAVEDVRKQGETMRIASSEFADDPCSSVKRGTMVRAARALLSAVTRLLILADMADVMRLLSHLKIVEEALEAVKNATNEQDLANRFKEFGKEMVKLNYVAARRQQELKDPHCRDEMAAARGALKKNATMLYTASQAFLRHPDVAATRANRDYVFKQVQEAIAGISNAAQATSPTDEAKGHTGIGELAAALNEFDNKIILDPMTFSEARFRPSLEERLESIISGAALMADSSCTRDDRRERIVAECNAVRQALQDLLSEYMNNTGRKEKGDPLNIAIDKMTKKTRDLRRQLRKAVMDHISDSFLETNVPLLVLIEAAKSGNEKEVKEYAQVFREHANKLVEVANLACSISNNEEGVKLVRMAATQIDSLCPQVINAALTLAARPQSKVAQDNMDVFKDQWEKQVRVLTEAVDDITSVDDFLSVSENHILEDVNKCVIALQEGDVDTLDRTAGAIRGRAARVIHIINAEMENYEAGVYTEKVLEATKLLSETVMPRFAEQVEVAIEALSANVPQPFEENEFIDASRLVYDGVRDIRKAVLMIRTPEELEDDSDFEQEDYDVRSRTSVQTEDDQLIAGQSARAIMAQLPQEEKAKIAEQVEIFHQEKSKLDAEVAKWDDSGNDIIVLAKQMCMIMMEMTDFTRGKGPLKNTSDVINAAKKIAEAGSRMDKLARAVADQCPDSACKQDLLAYLQRIALYCHQLNICSKVKAEVQNLGGELIVSGTGVQSTFTTFYEVDCDVIDGGRASQLSTHLPTCAEGAPIGSGSSDSSMLDSATSLIQAAKNLMNAVVLTVKASYVASTKYQKVYGTAAVNSPVVSWKMKAPEKKPLVKREKPEEFQTRVRRGSQKKHISPVQALSEFKAMDSF	binds	–	–
